Laboratory results reported in patent US20140369940A1.
No constants are given. Whether binding was seen depends on the method and setting. Some entries that bind do so weakly or less than the wild type.

Protein sequences, listed by entry. Tags and fused reporters are not part of them. Lines headed by an entry give the natural chain unless they say otherwise; changes in a name come on top.
UniProt Q16143: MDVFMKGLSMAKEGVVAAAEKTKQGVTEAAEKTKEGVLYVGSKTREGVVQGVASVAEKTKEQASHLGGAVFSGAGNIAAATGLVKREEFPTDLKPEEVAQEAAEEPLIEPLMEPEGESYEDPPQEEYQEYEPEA

Tests used:
[1] = molecular target: recombinant mutant β-synuclein M10K (human) (UniProt Q16143); assay: direct ELISA
[2] = molecular target: synthetic biotinylated α-synuclein peptide 1-30 (human); assay: in-solution ELISA, antibody coated at 2 µg/ml, biotinylated peptide
[3] = molecular target: synthetic biotinylated α-synuclein peptide 4-30 (human); assay: as above
[4] = molecular target: T1, human α-synuclein pepscan peptide A01 (residues 1-15) (human); assay: pepscan, immunoblotting
T1 sequence (peptide, C-terminally coupled via a flexible linker to cellulose membrane): MDVFMKGLSKAKEGV

[5] = molecular target: synthetic biotinylated α-synuclein peptide 1-30 (human); assay: in-solution ELISA
[6] = molecular target: synthetic biotinylated α-synuclein peptide 4-30 (human); assay: in-solution ELISA
[7] = molecular target: T1, human α-synuclein pepscan peptide A01 (residues 1-15) (human); assay: pepscan

Measured: binding

B1: recombinant human monoclonal antibody NI-202.12F4 (antibody, V domains shown)
VH: EVQLVQSGGGLVEPGGSLRLSCAVSGFDFEKAWMSWVRQAPGQGLQWVARIKSTADGGTTSYAAPVEGRFIISRDDSRNMLYLQMNSLKTEDTAVYYCTSAHWGQGTLVTVSS
VL: QSVLTQPPSVSVSPGQTARITCSGEALPMQFAHWYQQRPGKAPVIVVYKDSERPSGVPERFSGSSSGTTATLTITGVQAEDEADYYCQSPDSTNTYEVFGGGTKLTVL
binds: [1] | [2] | [3] | [4] | [5] | [6] | [7]
